Measured values reported in US9238697B2 (The Regents of the University of California, priority 2005, dated 2016).
*: point of attachment. Cbz = O=C(OCc1ccccc1)*; Boc = CC(C)(C)OC(=O)*

Assay: general procedure: solution-phase peptide synthesis; EDC/HOBt

| Substance | difficulty met (late stage modification step) | step yield (coupling step) [% yield] |
| --- | --- | --- |
| (Boc)Lys(Z)-His(Boc)-Lys(Boc)-Lys(Boc)-Lys-OMe | the compound had lost some Boc protecting group |  |
| Boc-K(Cbz)K(Boc)K(Boc)K(Cbz)-OMe |  | 59 |
